# Source: PMC10783502
# Protein sequences, listed by entry. Tags and fused reporters are not part of them. Lines headed by an entry give the natural chain unless they say otherwise; changes in a name come on top.
# UniProt Q9ZU66: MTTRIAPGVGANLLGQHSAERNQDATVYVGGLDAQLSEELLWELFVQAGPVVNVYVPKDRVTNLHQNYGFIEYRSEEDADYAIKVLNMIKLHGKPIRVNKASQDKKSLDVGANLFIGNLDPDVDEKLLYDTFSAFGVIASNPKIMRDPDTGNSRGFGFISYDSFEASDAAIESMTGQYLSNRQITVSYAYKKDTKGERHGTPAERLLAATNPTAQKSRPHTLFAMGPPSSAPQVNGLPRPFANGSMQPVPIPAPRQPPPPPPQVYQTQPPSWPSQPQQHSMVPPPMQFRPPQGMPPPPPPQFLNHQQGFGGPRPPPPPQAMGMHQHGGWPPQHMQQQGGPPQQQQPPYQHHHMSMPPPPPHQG
# UniProt Q9SP32: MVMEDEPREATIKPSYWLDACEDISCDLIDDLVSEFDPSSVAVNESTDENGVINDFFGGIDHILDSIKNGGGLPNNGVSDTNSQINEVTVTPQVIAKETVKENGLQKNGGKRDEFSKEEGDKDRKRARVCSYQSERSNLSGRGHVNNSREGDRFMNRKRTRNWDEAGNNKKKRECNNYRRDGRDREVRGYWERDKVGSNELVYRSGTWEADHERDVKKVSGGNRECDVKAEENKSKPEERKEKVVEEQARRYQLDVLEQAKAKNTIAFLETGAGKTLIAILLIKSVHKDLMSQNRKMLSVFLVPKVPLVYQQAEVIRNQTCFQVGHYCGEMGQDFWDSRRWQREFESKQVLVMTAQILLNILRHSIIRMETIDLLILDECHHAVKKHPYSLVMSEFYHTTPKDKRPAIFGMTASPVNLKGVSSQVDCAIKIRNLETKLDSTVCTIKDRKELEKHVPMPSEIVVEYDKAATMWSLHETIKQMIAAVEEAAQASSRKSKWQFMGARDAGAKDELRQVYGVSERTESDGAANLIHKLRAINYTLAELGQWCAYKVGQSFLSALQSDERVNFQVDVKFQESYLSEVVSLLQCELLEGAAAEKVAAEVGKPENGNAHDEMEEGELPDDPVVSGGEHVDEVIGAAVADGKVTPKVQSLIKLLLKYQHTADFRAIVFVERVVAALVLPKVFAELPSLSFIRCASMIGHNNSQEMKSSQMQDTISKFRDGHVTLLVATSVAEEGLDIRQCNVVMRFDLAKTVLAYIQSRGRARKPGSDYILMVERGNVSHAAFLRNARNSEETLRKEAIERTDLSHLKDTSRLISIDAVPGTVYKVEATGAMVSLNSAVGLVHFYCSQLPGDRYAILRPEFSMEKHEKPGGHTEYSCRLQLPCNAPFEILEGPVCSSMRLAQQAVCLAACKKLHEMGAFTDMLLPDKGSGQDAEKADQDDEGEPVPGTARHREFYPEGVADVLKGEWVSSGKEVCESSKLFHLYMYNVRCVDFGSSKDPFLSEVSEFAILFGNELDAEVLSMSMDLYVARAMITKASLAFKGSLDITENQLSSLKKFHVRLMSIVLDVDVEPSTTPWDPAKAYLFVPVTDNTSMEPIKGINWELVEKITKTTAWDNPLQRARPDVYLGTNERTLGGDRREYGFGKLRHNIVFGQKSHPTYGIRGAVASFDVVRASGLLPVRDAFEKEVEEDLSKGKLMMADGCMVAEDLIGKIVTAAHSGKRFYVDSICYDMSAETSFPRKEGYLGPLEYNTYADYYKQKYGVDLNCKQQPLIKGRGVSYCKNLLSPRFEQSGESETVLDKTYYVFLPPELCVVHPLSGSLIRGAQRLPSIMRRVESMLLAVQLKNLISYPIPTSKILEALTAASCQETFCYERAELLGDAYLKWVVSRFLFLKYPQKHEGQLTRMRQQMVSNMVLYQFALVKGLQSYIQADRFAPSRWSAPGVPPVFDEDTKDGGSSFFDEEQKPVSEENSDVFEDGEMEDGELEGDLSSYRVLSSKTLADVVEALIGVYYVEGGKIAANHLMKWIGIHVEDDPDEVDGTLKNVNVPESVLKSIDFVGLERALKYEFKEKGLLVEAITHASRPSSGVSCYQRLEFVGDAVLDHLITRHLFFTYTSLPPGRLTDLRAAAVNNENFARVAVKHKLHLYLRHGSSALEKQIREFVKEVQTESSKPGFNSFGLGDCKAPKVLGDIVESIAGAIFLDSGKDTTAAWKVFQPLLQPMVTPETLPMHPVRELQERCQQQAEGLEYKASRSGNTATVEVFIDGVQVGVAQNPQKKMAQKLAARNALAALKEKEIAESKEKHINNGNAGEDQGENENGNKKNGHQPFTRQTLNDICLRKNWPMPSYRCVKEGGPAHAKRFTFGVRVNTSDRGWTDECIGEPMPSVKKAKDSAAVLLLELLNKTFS
# These are yes or no findings as the source states them, for the method shown. In cells and extracts the contact can be indirect. Binding can be weak; no strength is given. For part of these data: Tags and fused reporters may be left off the sequences shown.
# B1: nVenus-CDC5 (protein, UniProt P92948 1-844)
# chain: MRIMIKGGVWKNTEDEILKAAVMKYGKNQWARISSLLVRKSAKQCKARWYEWLDPSIKKTEWTREEDEKLLHLAKLLPTQWRTIAPIVGRTPSQCLERYEKLLDAACTKDENYDAADDPRKLRPGEIDPNPEAKPARPDPVDMDEDEKEMLSEARARLANTRGKKAKRKAREKQLEEARRLASLQKRRELKAAGIDGRHRKRKRKGIDYNAEIPFEKRAPAGFYDTADEDRPADQVKFPTTIEELEGKRRADVEAHLRKQDVARNKIAQRQDAPAAILQANKLNDPEVVRKRSKLMLPPPQISDHELEEIAKMGYASDLLAENEELTEGSAATRALLANYSQTPRQGMTPMRTPQRTPAGKGDAIMMEAENLARLRDSQTPLLGGENPELHPSDFTGVTPRKKEIQTPNPMLTPSMTPGGAGLTPRIGLTPSRDGSSFSMTPKGTPFRDELHINEDMDMHESAKLERQRREEARRSLRSGLTGLPQPKNEYQIVAQPPPEESEEPEEKIEEDMSDRIAREKAEEEARQQALLKKRSKVLQRDLPRPPAASLAVIRNSLLSADGDKSSVVPPTPIEVADKMVREELLQLLEHDNAKYPLDDKAEKKKGAKNRTNRSASQVLAIDDFDENELQEADKMIKEEGKFLCVSMGHENKTLDDFVEAHNTCVNDLMYFPTRSAYELSSVAGNADKVAAFQEEMENVRKKMEEDEKKAEHMKAKYKTYTKGHERRAETVWTQIEATLKQAEIGGTEVECFKALKRQEEMAASFRKKNLQEEVIKQKETESKLQTRYGNMLAMVEKAEEIMVGFRAQALKKQEDVEDSHKLKEAKLATGEEEDIAIAMEASA
# B2: nVenus-HYL1 (protein, UniProt O04492 1-419)
# chain: MTSTDVSSGVSNCYVFKSRLQEYAQKYKLPTPVYEIVKEGPSHKSLFQSTVILDGVRYNSLPGFFNRKAAEQSAAEVALRELAKSSELSQCVSQPVHETGLCKNLLQEYAQKMNYAIPLYQCQKVETLGRVTQFTCTVEIGGIKYTGAATRTKKDAEISAGRTALLAIQSDTKNNLANYNTQLTVLPCEKKTIQAAIPLKETVKTLKARKAQFKKKAQKGKRTVAKNPEDIIIPPQPTDHCQNDQSEKIETTPNLEPSSCMNGLKEAAFGSVETEKIETTPNLEPPSCMNGLKEAAFGSVETEKIETTPNLEPPSCMNGLKEAAFGSVETEKIETTPNLEPSSCMNGLKEAAFGSVETEKIETTPNLEPPSCMNGLKEAAFGSVETEKIETTPNLESSSCMSGLKEAAFGSVETEASHA
# B3: nVenus-SE (protein, UniProt Q9ZVD0 1-720)
# chain: MADVNLPPSDSVDNRLPEKSTSSSPPPPPPSSSLPQQEQEQDQQQLPLRRERDSRERRDERDIERPPPNRRERDRSPLPPPRRDYKRRPSLSPPPPYRDRRHSPPQRRSPPQKRYRRDDNGYDGRRGSPRGGYGPPDRRFGYDHGGGYDREMGGRPGYGDERPHGRFMGRYQDWEGGRGGYGDASNSGNPQRDGLMSYKQFIQELEDDILPSEAERRYQEYKSEYITTQKRAFFNTHKEEDWLKNKYHPTNLLSVIERRNDLAQKVAKDFLLDLQSGTLDLGPAVTALNKSGRTSEPNSEDEAAGVGKRKRHGMGGAKENELLSAAPKAPSFTSDPKRILTDVEQTQALVRKLDSEKKIEENVLQGSETEKSGREKLHSGSTGPVVIIRGLTSVKGLEGVELLDTLVTYLWRVHGLDYYGKVETNEAKGLRHVRAEGKVSDAKGDENESKFDSHWQERLKGQDPLEVMAAKEKIDAAATEALDPHVRKIRDEKYGWKYGCGAKGCTKLFHAAEFVYKHLKLKHTELVTELTTKVREELYFQNYMNDPNAPGGQPATQQSGPRDRPIRRKPSMENRLRDDRGGRRERDGRANGNDRNDRSEDQQRGDNDGGNPGEVGYDAFGGQGGVHVPPFLSDINPPPMLMPVPGAGPLGPFVPAPPEVAMQMFRDPSGPNPPFEGSGRGGPAPFLLSPAFRQDPRRLRSYQDLDAPEEEVTVIDYRSL
# B4: nVenus-AGO1 (protein, UniProt O04379 1-1048)
# chain: MVRKRRTDAPSEGGEGSGSREAGPVSGGGRGSQRGGFQQGGGQHQGGRGYTPQPQQGGRGGRGYGQPPQQQQQYGGPQEYQGRGRGGPPHQGGRGGYGGGRGGGPSSGPPQRQSVPELHQATSPTYQAVSSQPTLSEVSPTQVPEPTVLAQQFEQLSVEQGAPSQAIQPIPSSSKAFKFPMRPGKGQSGKRCIVKANHFFAELPDKDLHHYDVTITPEVTSRGVNRAVMKQLVDNYRDSHLGSRLPAYDGRKSLYTAGPLPFNSKEFRINLLDEEVGAGGQRREREFKVVIKLVARADLHHLGMFLEGKQSDAPQEALQVLDIVLRELPTSRYIPVGRSFYSPDIGKKQSLGDGLESWRGFYQSIRPTQMGLSLNIDMSSTAFIEANPVIQFVCDLLNRDISSRPLSDADRVKIKKALRGVKVEVTHRGNMRRKYRISGLTAVATRELTFPVDERNTQKSVVEYFHETYGFRIQHTQLPCLQVGNSNRPNYLPMEVCKIVEGQRYSKRLNERQITALLKVTCQRPIDREKDILQTVQLNDYAKDNYAQEFGIKISTSLASVEARILPPPWLKYHESGREGTCLPQVGQWNMMNKKMINGGTVNNWICINFSRQVQDNLARTFCQELAQMCYVSGMAFNPEPVLPPVSARPEQVEKVLKTRYHDATSKLSQGKEIDLLIVILPDNNGSLYGDLKRICETELGIVSQCCLTKHVFKMSKQYMANVALKINVKVGGRNTVLVDALSRRIPLVSDRPTIIFGADVTHPHPGEDSSPSIAAVVASQDWPEITKYAGLVCAQAHRQELIQDLFKEWKDPQKGVVTGGMIKELLIAFRRSTGHKPLRIIFYRDGVSEGQFYQVLLYELDAIRKACASLEAGYQPPVTFVVVQKRHHTRLFAQNHNDRHSVDRSGNILPGTVVDSKICHPTEFDFYLCSHAGIQGTSRPAHYHVLWDENNFTADGLQSLTNNLCYTYARCTRSVSIVPPAYYAHLAAFRARFYMEPETSDSGSMASGSMARGGGMAGRSTRGPNVNAAVRPLPALKENVKRVMFYC
# B5: MYC-SE (protein, UniProt Q9ZVD0 1-720)
# chain: B3 chain
# Target: cCFP-JANUS (Arabidopsis) (UniProt Q9ZU66)
# Experiment: split reporter; BiFC: cCFP-JANUS co-infiltrated with nVenus fusions in N. benthamiana leaves; YFP signal by confocal microscopy after 48 h
row,binding,Molecule
1,binds,nVenus-DCL1 (from UniProt Q9SP32 1-1909)
2,binds,B1
3,binds weakly,B2
4,binds,B3
5,binds weakly,B4

# Target: JANUS-FLAG (Arabidopsis)
# Experiment: co-IP; transient co-expression in N. benthamiana (35S promoter); leaf extract in 50 mM Tris-HCl 8.0, 150 mM NaCl, 5% glycerol, 5% Triton X-100, 1 mM EDTA; IP with anti-FLAG (JANUS-FLAG + MYC-SE) or anti-GFP (GFP-DCL1 + JANUS-FLAG; GFP-tagged JANUS fragments + MYC-SE) on protein G agarose beads; western blot
row,binding,Molecule
1,binds,B5
